Results on 54 molecules are retold here after PubChem BioAssay AID1487 (National Center for Advancing Translational Sciences (NCATS), 2009).

A short description of the experiment: qHTS Assay for Modulators of Lamin A Splicing. The conditions noted are these: HeLa LMNA splicing GFP/RFP minigene ratio, 48 h. Put shortly: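 S3 HeLa cells stably expressing lamin A-EGFP splicing minigene plus DsRed2, 600 cells/well, 48 h compound exposure at 37C. Laser-scanning cytometry; analysed as GFP (500-530 nm)/RFP (575-640 nm) total intensity ratio; 0.5% DMSO vehicle.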
(Quantitative high-throughput screening tests each substance at several concentrations.)

[1] abbreviates: measured here: RFP viability control channel.
[2] abbreviates: measured here: GFP splicing reporter channel.

The list shows a part of the results. Shown are side measurements of this screen, not its main read-out; they come without a call. Most of these compounds were active or inconclusive in the main read-out, so they are no random draw. The note in brackets gives the kind of curve behind each potency; many fits are weak.

In the case of `CC1=C(C#N)C(c2cn(-c3ccccc3)nc2-c2cccs2)C(C#N)=C(C)N1`, the AC50 under setting [1] is 14.1 µM [rising, single point].

`CSc1nncc(-c2ccccc2)n1`: the AC50 under setting [2] is 0.0178 µM [falling, full curve, poor fit].

`O=C(OCC(=O)c1ccc[nH]1)c1ccccc1`: the AC50 under setting [2] is 0.00355 µM [falling, full curve, poor fit].

Turning to `CN(C)S(=O)(=O)c1ccc2[nH]cc(/C=C/c3nc4ccccc4c(=O)n3-c3ccccc3)c2c1`, the AC50 runs as follows: under setting [2], 35.5 µM [falling, single point]; under setting [1], 22.4 µM [falling, partial curve].

For `COc1ccc(NC(=O)CSc2ncccc2C(=O)OC(C)C)cc1OC`, under setting [1], the AC50 is 8.91 µM [rising, partial curve].

Regarding `COc1cccc(NS(=O)(=O)c2ccc(-c3cc(C)no3)s2)c1`, the AC50 under setting [1] was 12.6 µM [rising, single point].

With `CCC(c1nnnn1Cc1ccccc1)N(Cc1ccco1)Cc1cc2cc(OC)ccc2[nH]c1=O` (configuration not stated), the AC50 reads like this: under setting [2], 22.4 µM [falling, partial curve, poor fit]; under setting [1], 20 µM [falling, partial curve].

Regarding `COc1ccccc1Cn1c(=S)[nH]c2cc(C(=O)NCCN3CCOCC3)ccc2c1=O`, the AC50 under setting [1] is 6.31 µM [rising, partial curve, poor fit].

As to `CCOc1ccccc1N(C(C)=O)S(=O)(=O)c1ccc(Cl)cc1`, the AC50 under setting [1] is 35.5 µM [rising, single point].

`Cc1ccccc1-c1nc(-c2ccc(NC(=O)c3ccc4c(c3)OCO4)cc2)no1`: under setting [1], the AC50 is 0.631 µM [rising, full curve].

On to `CCn1cc(C(=O)NNC(=O)c2ccc(Cl)cc2)c(=O)c2ccc(C)nc21`, for which the AC50 under setting [1] was 11.2 µM [rising, single point].

`Cc1ccc(-c2nc(SCC(=O)NCc3ccco3)c3c(=O)n(C)c(=O)n(C)c3n2)cc1`: the AC50 under setting [1] was 15.8 µM [rising, single point].

Regarding `CCCc1nc2ccccc2c(=O)n1/N=C/c1ccc(O)cc1`, the AC50 under setting [1] was 15.8 µM [rising, partial curve].

`O=C(O)C1C2CCC(O2)C1C(=O)Nc1ccc(F)cc1` (configuration not stated): the AC50 was 35.5 µM [rising, single point] under setting [2] and 14.1 µM [rising, partial curve, poor fit] under setting [1].

For the molecule `CCCN(CCC)S(=O)(=O)c1ccc(C(=O)N2CC3CCC(CC3)C2)cc1`, the AC50 runs as follows: under setting [2], 3.98 µM [falling, partial curve]; under setting [1], 25.1 µM [falling, partial curve].

On to `O=S(=O)(c1ccc(Oc2ncnc3scc(-c4ccccc4)c23)cc1)N1CCOCC1`, for which the AC50 is, setting by setting: under setting [2], 10 µM [rising, partial curve]; under setting [1], 15.8 µM [rising, single point].

Take `N#Cc1cccc(C#N)c1N1CCC(C#N)CC1`: the AC50 under setting [2] was 6.31 µM [rising, partial curve, poor fit].

As to `COC(=O)c1cnc(N2CCN(c3ccccc3F)CC2)c2ccccc12`, the concentration at half-maximal activity (AC50) under setting [2] is 0.0224 µM [rising, full curve, poor fit].

Take `O=C(NCc1ccc(F)cc1)c1ccccc1OCc1ccccc1`: the AC50 is, setting by setting: under setting [2], 11.2 µM [rising, partial curve]; under setting [1], 17.8 µM [rising, partial curve].

In the case of `Cn1c(=O)nc2n(Cc3ccccc3)c3ccccc3cc-2c1=O`, the AC50 under setting [1] is 11.2 µM [falling, partial curve, poor fit].

For `C/C(CC(=O)Nc1cc(Cl)ccc1Cl)=N\NC(N)=S`, the AC50 under setting [1] was 35.5 µM [falling, single point].

Turning to `COc1ccc(OC)c(NC(=O)c2c(NCc3cccs3)sc3c2CCCC3)c1`, the AC50 under setting [2] was 12.6 µM [falling, partial curve].

With `CCn1ncc(Cl)c1C(=O)NC(=S)Nc1c(C)cc(C)cc1[N+](=O)[O-]`, the AC50 was 12.6 µM [rising, single point] under setting [2] and 31.6 µM [rising, single point] under setting [1].

For the molecule `CCC(OC(=O)c1nsc(Cl)c1Cl)C(=O)NC(C)(C)CC` (configuration not stated), the AC50 under setting [2] was 0.282 µM [falling, full curve, poor fit].

For the molecule `CCCOC(=O)Nc1sc2c(c1C(N)=O)CCCC2`, the AC50 reads like this: under setting [2], 0.0708 µM [falling, full curve, poor fit]; under setting [1], 6.31 µM [falling, partial curve, poor fit].

Turning to `Cc1cccc(OCc2nnc(SCC(=O)Nc3cccc(C(=O)N4CCOCC4)c3)n2C)c1C`, the AC50 was 11.2 µM [rising, partial curve] under setting [2] and 17.8 µM [rising, single point] under setting [1].

Regarding `O=C(Cn1c(-c2cccs2)cc2ccccc21)NCCc1ccc(Cl)cc1`, the AC50 is, setting by setting: under setting [2], 10 µM [rising, partial curve]; under setting [1], 10 µM [rising, partial curve].

Take `COc1ccccc1N1CCN(C(=O)CN(Cc2ccc(Cl)cc2)S(C)(=O)=O)CC1`: the AC50 under setting [1] is 15.8 µM [rising, single point].

Turning to `COc1cccc(NC(=O)Cn2c(CCC(=O)O)ccc2-c2ccc(Cl)cc2)c1`, the AC50 under setting [1] was 0.0355 µM [falling, full curve].

Turning to `Cc1ccc(CNS(=O)(=O)c2cc3c(cc2C)NC(=O)CO3)cc1`, the AC50 under setting [1] was 35.5 µM [falling, partial curve, poor fit].

As for `Cc1ccc(C)c(N2CCN(C(=O)c3csc(C)c3C)CC2)c1`, the AC50 is 35.5 µM [rising, single point] under setting [2] and 35.5 µM [rising, single point] under setting [1].

As to `Cc1cncn1CCc1nc2c3ccccc3nc(SCC(=O)Nc3cccc(Cl)c3)n2n1`, the AC50 under setting [1] was 11.2 µM [rising, partial curve].

For `Cc1ccc(NC(=O)CN2C(=O)NC(Cc3c[nH]c4ccccc34)C2=O)cc1S(=O)(=O)N1CCCCC1` (configuration not stated), the AC50 reads like this: under setting [2], 25.1 µM [rising, single point]; under setting [1], 28.2 µM [rising, single point].

Turning to `COc1ccc(C2=Nn3c(nnc3-c3ccccc3OC)SC2)cc1OC`, the AC50 is 1.41 µM [falling, full curve] under setting [2] and 1.58 µM [falling, full curve] under setting [1].

As to `COc1ccc(NC(=O)Cn2nnc(-c3ccccc3NS(=O)(=O)c3ccccc3)n2)cc1`, under setting [1], the AC50 is 2.82 µM [rising, partial curve, poor fit].

Take `CN(C)c1ccc(/C=C2\SC(=O)N(CC(O)Cn3c4ccccc4c4ccccc43)C2=O)cc1` (configuration not stated): the AC50 under setting [1] was 3.98 µM [rising, full curve, poor fit].

As to `COc1ccc(N2CCN(Cc3nc(-c4ccc(Cl)cc4Cl)no3)CC2)cc1`, the AC50 under setting [1] was 15.8 µM [rising, partial curve, poor fit].

Take `Cc1ccc(OCC(=O)N(c2ccccn2)C2CCCCC2)c(C)c1`: the AC50 under setting [1] was 12.6 µM [rising, partial curve].

As to `c1ncc(-c2ccc3c(c2)OCO3)c(NCCc2cnc[nH]2)n1`, the AC50 by setting is: under setting [2], 8.91 µM [falling, partial curve, poor fit]; under setting [1], 0.891 µM [falling, partial curve].

As for `Cc1nc2sc3c(NCc4ccco4)ncnc3c2c2c1COC(C)(C)C2`, the AC50 is, setting by setting: under setting [2], 17.8 µM [rising, partial curve]; under setting [1], 20 µM [rising, partial curve].

As for `CCOc1cccc(CNc2ccc(O)cc2)c1OCc1ccc(Cl)cc1Cl`, the AC50 reads like this: under setting [2], 17.8 µM [rising, single point]; under setting [1], 31.6 µM [rising, single point].

`Cc1cccc2sc(NC(=O)CN(C)S(=O)(=O)c3ccc(Br)s3)nc12`: the AC50 was 15.8 µM [rising, partial curve] under setting [2] and 20 µM [rising, single point] under setting [1].

On to `Cc1ccc(Oc2ccc(NC(=O)CSc3n[nH]c(N)n3)cc2)cc1`, for which the AC50 is 15.8 µM [rising, partial curve] under setting [2] and 31.6 µM [rising, single point] under setting [1].

As to `COc1ccccc1NC(=O)c1cnc(SCC(=O)N2CCCc3ccccc32)n(C)c1=O`, the AC50 was 6.31 µM [falling, partial curve, poor fit] under setting [2] and 3.98 µM [falling, single point] under setting [1].

Regarding `Cc1cccc(-c2nc(CSc3nc4c(c(=O)[nH]3)CCC4)c(C)o2)c1`, the AC50 under setting [2] was 0.00562 µM [rising, full curve, poor fit].

`Cc1cc(C)nc(SCC(=O)Nc2ccc(S(=O)(=O)N3CCCCC3)cc2)n1`: the AC50 under setting [1] was 11.2 µM [rising, single point].

As to `CC1=C(C)/C(=N/OC(=O)c2cccc([N+](=O)[O-])c2)C=CC1=O`, the AC50 reads like this: under setting [2], 35.5 µM [falling, single point]; under setting [1], 35.5 µM [falling, single point].

In the case of `CC(=O)c1ccc(-c2cccs2)s1`, the AC50 under setting [2] was 0.316 µM [rising, partial curve, poor fit] and the AC50 under setting [1] is 1.78 µM [rising, partial curve].

For the molecule `CCOc1ccc(-c2csc(NC(=O)C3CCCO3)n2)cc1` (configuration not stated), the AC50 under setting [1] was 5.62 µM [rising, partial curve].

For `CCOC(=O)C1=C(O)c2ccccc2C(=O)/C1=C\c1ccc(CC)cc1`, the AC50 was 14.1 µM [falling, single point] under setting [2] and 5.62 µM [rising, full curve, poor fit] under setting [1].

For `COC(=O)CS(=O)(=O)c1nnc([C@H](Cc2ccccc2)NC(=O)OC(C)(C)C)o1`, the AC50 under setting [1] is 11.2 µM [rising, partial curve, poor fit].

In the case of `CC(=O)Nc1ccc(Nc2cc(C)nc3c(-c4ccc(Cl)cc4)cnn23)cc1`, the AC50 under setting [1] is 35.5 µM [rising, single point].

`CCCCC(=O)N(CCOC)c1nnc(-c2ccccc2C)s1`: the AC50 under setting [1] was 0.00631 µM [falling, full curve, poor fit].

As for `CCc1cc2cc(C)ccc2nc1SCC(=O)N1CCN(C(=O)c2ccco2)CC1`, the AC50 under setting [2] was 31.6 µM [rising, single point] and the AC50 under setting [1] is 35.5 µM [rising, single point].

The term AC50 denotes the concentration giving half of the maximal activity seen.
